Test: in vivo
Assay type: in vivo
Conditions: oral, 50 mg/kg, male wister rats (7 weeks old), bioassay (Escherichia coli SC507)
Method: Male wister rats (7 weeks old) were administered orally with the test compound, and the change of the concentration of the compound in blood was measured.
Dosage of the test compound:
Quantitative method: Bioassay
(test bacterium: Escherichia coli SC507)

CC1=C(C(=O)O)N2C(=O)[C@@H](NC(=O)[C@H](N)c3ccccc3)[C@H]2SC1 [YY, Cefalexin, reference compound]
Concentration in blood (One Hour, 60 min): 17870 ng/mL | concentration at 4 h (rat, blood, Four Hours): 6710 ng/mL | concentration at 2 h (rat, blood, Two Hours): 18900 ng/mL

Source: patent US4841044A, “Cephalosporin derivatives” (Taisho Pharmaceutical Co., Ltd., priority 1985, dated 1989)
